Experiments:
arthritis model rat = test: Inflammation inhibitory effect in arthritis model rat (foot swelling, volume meter); type: in vivo; conditions: FIG. 9
Protocol: 100 μl of an adjuvant suspension containing 6 mg/ml dry M. Butyricum was intravenously injected through the tail head portion of a rat. 6 days later, 100 μl of a physiological salt solution containing 1% carrageenin was injected into the sole of the left foot thereof, so as to produce a continued 1 arthritis model rat (Y. Mizushima et al., J. Pharm. Pharmac., 1972, 24, 781-785). At 24 hours after administration of carrageenin, the BDP-containing PLGA preparation produced in Example 2 (50 μg/rat betamethazone) was injected into the caudal vein thereof, and the swelling of the foot of the rat was measured with a volume meter over time. As a control, there was used a rat into which betamethazone phosphate was subcutaneously injected, having the same titer as that of a rat into the caudal vein of which PBS alone was injected.

[1] = Encapsulation ratio of agents in PLGA microparticles (HPLC of supernatant and deposit); type: physicochemical; conditions: FIG. 1; microparticles of Example 1
Protocol: 100 mg of PLGA (Wako) or PLA (Wako), 10 mg of egg yolk lecithin, and 0.5 mg of an agent were dissolved in 1 ml of dichloromethane. While cooling in an ice bath, the obtained solution was slowly added dropwise, through a 27G needle, to 25 ml of distilled water, which was being stirred with Polytron PT-2100 (Kinematica) or an ultrasonic generator (TOMY). After the stirring was continued for 10 minutes, the mixture was further stirred with a stirrer at room temperature for 2 hours. Thereafter, dichloromethane was removed. The obtained microparticles were concentrated by ultra filtration (Amicon, Centriprep YM-10) and were then purified by gel filtration (Pharmacia, PD-10). The thus obtained particles were centrifuged at 13,000 g for 10 minutes, and the agent contained in the supernatant and deposit was assayed by HPLC. HPLC analysis was carried out in a water/acetonitrile system for measuring the absorption at 210 nm or 240 nm using a C4 reverse phase column (Waters, Symmetry 300). With regard to agents, PGE1, and ASO06 produced by esterifying carboxylic acid and a hydroxyl group thereof, were used as prostanoids. Hydrocortisone, hydrocortisone acetate, hydrocortisone butyrate propionate (HBP), betamethazone, and betamethazone dipropionate (BDP) were used as steroids.

| Compound | inhibition of foot swelling (arthritis model rat; 1st day, 50 μg/rat betamethazone, PLGA preparation into caudal vein, betamethazone phosphate subcutaneously) | inhibition of foot swelling (arthritis model rat; after the 1st day, same dosing) | encapsulation ratio in PLGA microparticle [1] |
| --- | --- | --- | --- |
| C[C@H]1C[C@H]2[C@@H]3CCC4=CC(=O)C=C[C@]4(C)[C@@]3(F)[C@@H](O)C[C@]2(C)[C@@]1(O)C(=O)COP(=O)(O)O [betamethazone phosphate] | swelling was strongly inhibited | inhibitory effects rapidly decreased | – |
| C[C@H]1C[C@H]2[C@@H]3CCC4=CC(=O)C=C[C@]4(C)[C@@]3(F)[C@@H](O)C[C@]2(C)[C@@]1(O)C(=O)CO [betamethazone] | – | – | almost neither hydrocortisone nor betamethazone could be encapsulated |

— patent US20060088598A1, “Intravenous composition, process for producing the same and preparation thereof” (LTT Bio-Pharama Co., Ltd., priority 2002, published 2006)
